Measurements reported in PubChem BioAssay AID1224826 (NIAID, 2016)

Aim: 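Knock-downs that raise or lower Tnf reporter signal after endotoxin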 (primary screen)
Cells: RAW264.7 G9 macrophages from mouse bearing reporters for p65 (GFP) and the Tnf promoter (mCherry)
Reagents: siRNA pool against mouse genes, 100 nM
Time to read-out: 16 h of LPS stimulation, after 2 days of siRNA transfection
Conditions: bacterial lipopolysaccharide (Salmonella minnesota R595), 10 ng/ml
Read-out: 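Nuclear mCherry signal of the Tnf promoter reporter measured by imaging after background removal, scaled to each plate median and turned into robust z-scores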
Reading the numbers: Tnf reporter robust z-score: higher = stronger Tnf promoter reporter signal after LPS
Active means: 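a well counts as active at a score of -1.3 or below (Tlr4 knock-down control median) or above 3 (raised signal); controls and wells holding fewer than 50 cells are excluded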
Meaning of the calls: active = Tnf reporter clearly lowered or raised; inactive = no clear change in Tnf reporter
Shown is one part, drawn at random, of about 17,000 reagents. Over the whole deposit, about 1,110 (6.6%) got an active call. 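Active means lowered or raised reporter signal; replicate intensities are raw and not normalised per plate.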 Unmarked entries are inactive. The numbers tell different reagents against one gene apart. Further read-outs or replicates are left out here.

no.	Gene	reagent no.	Tnf reporter robust z-score	fewer than 50 cells in well
1	Sulf1 (GeneID 240725)	1	0.08	enough cells in well
2	Or6b9 (GeneID 233670)	1	-0.72	enough cells in well
3	Rpl24 (GeneID 68193)	1	3.51 (active)	enough cells in well
4	Sln (GeneID 66402)	1		fewer than 50 cells per well; well left out of calls
5	Ifngr2 (GeneID 15980)	1	1.04	enough cells in well
6	Or5p66 (GeneID 258491)	1		fewer than 50 cells per well; well left out of calls
7	Sgcb (GeneID 24051)	1	0.25	enough cells in well
8	Gtf2a1 (GeneID 83602)	1	-0.05	enough cells in well
9	Tmem198 (GeneID 319998)	1	-1.29	enough cells in well
10	Fbxo42 (GeneID 213499)	1	-0.64	enough cells in well
11	Nxph2 (GeneID 18232)	1	-1.3 (active)	enough cells in well
12	Txk (GeneID 22165)	1	-0.23	enough cells in well
13	Pvr (GeneID 52118)	1	-0.45	enough cells in well
14	Pvr (GeneID 52118)	2	0.09	enough cells in well
15	Efcab8 (GeneID 100504221)	1	1.07	enough cells in well
16	Mbtps1 (GeneID 56453)	1	-0.19	enough cells in well
17	Sppl2b (GeneID 73218)	1	0.1	enough cells in well
18	Ephx2 (GeneID 13850)	1	-0.27	enough cells in well
19	Il27ra (GeneID 50931)	1	1.8	enough cells in well
20	Dsg3 (GeneID 13512)	1	-0.81	enough cells in well
21	Abcb6 (GeneID 74104)	1	0.84	enough cells in well
22	Fgfrl1 (GeneID 116701)	1	-0.19	enough cells in well
23	Cd244a (GeneID 18106)	1	0.21	enough cells in well
24	Pde4d (GeneID 238871)	1	0.32	enough cells in well
25	Pde4d (GeneID 238871)	2	0.24	enough cells in well
26	A530020G20Rik (GeneID 319839)	1	-0.25	enough cells in well
27	Usp37 (GeneID 319651)	1	-0.37	enough cells in well
28	Bpifb6 (GeneID 228796)	1	-0.38	enough cells in well
29	Mob3a (GeneID 208228)	1	1.35	enough cells in well
30	Ndst2 (GeneID 17423)	1	0.15	enough cells in well
31	Prkab2 (GeneID 108097)	1	-0.17	enough cells in well

Hits, among the entries above:
Gene	reagent no.	Tnf reporter robust z-score	fewer than 50 cells in well
Rpl24 (GeneID 68193)	1	3.51 (active)	enough cells in well
Nxph2 (GeneID 18232)	1	-1.3 (active)	enough cells in well

Next results follow.
no.	Gene	reagent no.	Tnf reporter robust z-score	fewer than 50 cells in well
32	Tnfrsf12a (GeneID 27279)	1	-1.87 (active)	enough cells in well
33	Actrt2 (GeneID 73353)	1	0.1	enough cells in well
34	Aldh1a2 (GeneID 19378)	1	-1.54 (active)	enough cells in well
35	Ubxn7 (GeneID 224111)	1	0	enough cells in well
36	Pitpna (GeneID 18738)	1	0.11	enough cells in well
37	Mpzl3 (GeneID 319742)	1	-0.23	enough cells in well
38	Zfp110 (GeneID 65020)	1	-1.44 (active)	enough cells in well
39	Ppip5k1 (GeneID 327655)	1	0.82	enough cells in well
40	Ppm1k (GeneID 243382)	1	-0.61	enough cells in well
41	Nr1h3 (GeneID 22259)	1	-2.13 (active)	enough cells in well
42	Gli3 (GeneID 14634)	1		fewer than 50 cells per well; well left out of calls
43	Gsta2 (GeneID 14858)	1	0.78	enough cells in well
44	Zic2 (GeneID 22772)	1	-0.38	enough cells in well
45	Barx2 (GeneID 12023)	1	-0.72	enough cells in well
46	Gabra4 (GeneID 14397)	1	-0.38	enough cells in well
47	Mrpl13 (GeneID 68537)	1	0.11	enough cells in well
48	Eif2s3x (GeneID 26905)	1	-1.67 (active)	enough cells in well
49	Or6c208 (GeneID 258724)	1		fewer than 50 cells per well; well left out of calls
50	Ppp1r1b (GeneID 19049)	1	-0.15	enough cells in well
51	Iqcb1 (GeneID 320299)	1	0.01	enough cells in well
52	Samsn1 (GeneID 67742)	1	-0.75	enough cells in well
53	Pafah1b2 (GeneID 18475)	1	-0.59	enough cells in well
54	Chmp1a (GeneID 234852)	1		fewer than 50 cells per well; well left out of calls
55	Adap1 (GeneID 231821)	1	0.95	enough cells in well
56	Tekt2 (GeneID 24084)	1	0.04	enough cells in well
57	Tstd2 (GeneID 272027)	1		fewer than 50 cells per well; well left out of calls
58	Zcchc8 (GeneID 70650)	1	1.1	enough cells in well
